Earlier results in US6787149B1 (El Khoury and Stein Ltd., priority 2000, dated 2004).

System: patients who had undergone failed back operations
Settings: 1-3 mg on the back; claimed by the authors, questioned by the patent; cited from earlier work

## CN1CC[C@]23c4c5ccc(O)c4O[C@H]2[C@@H](O)C=C[C@H]3[C@H]1C5.O=S(=O)(O)O [Morphine, morphine sulfate]
  Morphine in the systemic circulation: absence of morphine in the systemic circulation
